These are yes or no findings as the source states them, for the method shown. Binding seen in cells or lysates may run through a third protein. Some results given as binding are weak or reduced against the parent protein; the word gives no strength. Tags and fused reporters may be left off the sequences shown.
T1: U20 expressed in U373 cells (HHV-6B) (UniProt Q9QJ46)
T1 sequence: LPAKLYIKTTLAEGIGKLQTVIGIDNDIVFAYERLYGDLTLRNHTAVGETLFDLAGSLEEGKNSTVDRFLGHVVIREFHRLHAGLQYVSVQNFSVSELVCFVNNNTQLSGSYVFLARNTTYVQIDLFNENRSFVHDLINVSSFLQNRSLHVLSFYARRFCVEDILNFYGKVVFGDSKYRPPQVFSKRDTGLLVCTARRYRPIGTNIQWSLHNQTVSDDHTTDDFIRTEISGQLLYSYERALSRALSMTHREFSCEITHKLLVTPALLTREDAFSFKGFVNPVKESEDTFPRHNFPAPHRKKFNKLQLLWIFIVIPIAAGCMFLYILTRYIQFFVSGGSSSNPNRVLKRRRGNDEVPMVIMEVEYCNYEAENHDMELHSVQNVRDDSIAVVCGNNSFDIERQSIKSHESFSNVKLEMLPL

T2: N-terminally HA-tagged ULBP1 (UniProt Q9BZM6)
T2 sequence: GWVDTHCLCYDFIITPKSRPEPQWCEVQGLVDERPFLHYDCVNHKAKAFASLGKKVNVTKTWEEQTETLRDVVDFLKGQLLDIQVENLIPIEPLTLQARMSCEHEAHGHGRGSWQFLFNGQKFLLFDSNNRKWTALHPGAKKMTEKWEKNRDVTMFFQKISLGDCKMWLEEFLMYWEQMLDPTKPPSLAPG


Key:
[1] = target: T1, U20 expressed in U373 cells (HHV-6B); experiment: co-IP; U373 cells co-expressing U20 and HA-ULBP1; 1% digitonin lysis buffer; IP with anti-U20 (MCW53) or anti-HA (HA.11); immunoblot
[2] = target: T2, N-terminally HA-tagged ULBP1; experiment: as above

Binder | binding [1] | binding [2]
N-terminally HA-tagged ULBP1 (protein, UniProt Q9BZM6 26-216) GWVDTHCLCYDFIITPKSRPEPQWCEVQGLVDERPFLHYDCVNHKAKAFASLGKKVNVTKTWEEQTETLRDVVDFLKGQLLDIQVENLIPIEPLTLQARMSCEHEAHGHGRGSWQFLFNGQKFLLFDSNNRKWTALHPGAKKMTEKWEKNRDVTMFFQKISLGDCKMWLEEFLMYWEQMLDPTKPPSLAPG | binds | 
U20 expressed in U373 cells (protein, UniProt Q9QJ46 16-434) LPAKLYIKTTLAEGIGKLQTVIGIDNDIVFAYERLYGDLTLRNHTAVGETLFDLAGSLEEGKNSTVDRFLGHVVIREFHRLHAGLQYVSVQNFSVSELVCFVNNNTQLSGSYVFLARNTTYVQIDLFNENRSFVHDLINVSSFLQNRSLHVLSFYARRFCVEDILNFYGKVVFGDSKYRPPQVFSKRDTGLLVCTARRYRPIGTNIQWSLHNQTVSDDHTTDDFIRTEISGQLLYSYERALSRALSMTHREFSCEITHKLLVTPALLTREDAFSFKGFVNPVKESEDTFPRHNFPAPHRKKFNKLQLLWIFIVIPIAAGCMFLYILTRYIQFFVSGGSSSNPNRVLKRRRGNDEVPMVIMEVEYCNYEAENHDMELHSVQNVRDDSIAVVCGNNSFDIERQSIKSHESFSNVKLEMLPL |  | binds
